# Test results published in the supplement of paper PMC6411743.
# By UniProt entry, the sequences of proteins in these tests, tags left out. Where a name states a change or a piece, a line headed by the entry shows the natural chain unless it says otherwise.
# UniProt P20336: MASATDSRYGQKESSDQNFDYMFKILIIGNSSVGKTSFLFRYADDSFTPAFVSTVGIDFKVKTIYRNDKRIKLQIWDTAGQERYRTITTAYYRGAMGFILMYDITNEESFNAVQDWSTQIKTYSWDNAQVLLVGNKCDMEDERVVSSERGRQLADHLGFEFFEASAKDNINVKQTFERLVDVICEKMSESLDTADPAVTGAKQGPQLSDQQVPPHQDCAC
# UniProt P26640: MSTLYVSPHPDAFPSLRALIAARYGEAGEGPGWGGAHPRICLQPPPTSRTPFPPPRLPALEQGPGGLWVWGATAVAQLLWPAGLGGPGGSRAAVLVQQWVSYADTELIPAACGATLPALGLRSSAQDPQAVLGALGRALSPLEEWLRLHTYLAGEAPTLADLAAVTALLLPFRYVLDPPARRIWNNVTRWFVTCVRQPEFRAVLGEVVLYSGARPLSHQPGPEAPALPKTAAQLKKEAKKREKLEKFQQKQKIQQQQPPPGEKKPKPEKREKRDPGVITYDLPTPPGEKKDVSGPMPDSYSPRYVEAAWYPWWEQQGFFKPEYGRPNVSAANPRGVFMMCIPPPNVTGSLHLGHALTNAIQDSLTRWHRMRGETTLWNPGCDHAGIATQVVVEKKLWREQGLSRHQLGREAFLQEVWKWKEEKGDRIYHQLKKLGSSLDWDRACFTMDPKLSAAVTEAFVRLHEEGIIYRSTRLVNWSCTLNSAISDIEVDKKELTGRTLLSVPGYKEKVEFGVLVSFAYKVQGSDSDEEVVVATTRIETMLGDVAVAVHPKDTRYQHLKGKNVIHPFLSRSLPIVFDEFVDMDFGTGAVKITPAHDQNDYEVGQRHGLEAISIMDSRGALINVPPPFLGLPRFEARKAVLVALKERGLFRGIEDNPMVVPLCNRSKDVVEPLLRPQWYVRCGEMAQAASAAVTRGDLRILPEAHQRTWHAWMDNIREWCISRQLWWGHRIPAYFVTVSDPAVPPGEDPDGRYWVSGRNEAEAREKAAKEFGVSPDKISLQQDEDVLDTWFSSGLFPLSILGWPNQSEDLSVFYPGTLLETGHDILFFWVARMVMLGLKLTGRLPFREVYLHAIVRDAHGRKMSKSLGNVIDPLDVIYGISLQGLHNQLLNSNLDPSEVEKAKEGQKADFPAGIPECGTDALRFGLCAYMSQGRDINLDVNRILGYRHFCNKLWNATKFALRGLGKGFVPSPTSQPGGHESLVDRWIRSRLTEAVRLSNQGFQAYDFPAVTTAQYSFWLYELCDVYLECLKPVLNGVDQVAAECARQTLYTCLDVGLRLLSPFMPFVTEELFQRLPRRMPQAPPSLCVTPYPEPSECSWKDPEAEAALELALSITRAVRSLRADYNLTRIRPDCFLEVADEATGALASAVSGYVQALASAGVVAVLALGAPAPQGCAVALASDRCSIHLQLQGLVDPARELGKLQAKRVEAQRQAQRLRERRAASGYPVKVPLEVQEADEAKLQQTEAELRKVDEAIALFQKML
# UniProt P29350: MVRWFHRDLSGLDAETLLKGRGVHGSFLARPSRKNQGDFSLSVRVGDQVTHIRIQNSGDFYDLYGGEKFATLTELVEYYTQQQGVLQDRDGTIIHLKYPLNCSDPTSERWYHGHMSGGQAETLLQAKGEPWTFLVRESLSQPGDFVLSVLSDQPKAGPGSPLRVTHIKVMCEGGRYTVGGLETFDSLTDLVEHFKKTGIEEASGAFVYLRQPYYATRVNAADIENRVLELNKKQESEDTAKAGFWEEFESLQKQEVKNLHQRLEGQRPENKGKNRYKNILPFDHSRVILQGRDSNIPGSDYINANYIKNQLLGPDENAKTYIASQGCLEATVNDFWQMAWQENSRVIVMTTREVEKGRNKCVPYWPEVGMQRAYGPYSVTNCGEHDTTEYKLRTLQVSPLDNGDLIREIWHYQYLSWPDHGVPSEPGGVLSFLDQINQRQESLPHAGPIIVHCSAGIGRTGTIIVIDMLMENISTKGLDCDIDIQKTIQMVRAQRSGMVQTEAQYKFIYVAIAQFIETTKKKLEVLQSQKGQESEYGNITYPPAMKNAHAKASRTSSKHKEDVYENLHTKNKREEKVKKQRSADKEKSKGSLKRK
# UniProt P33241, whole entry: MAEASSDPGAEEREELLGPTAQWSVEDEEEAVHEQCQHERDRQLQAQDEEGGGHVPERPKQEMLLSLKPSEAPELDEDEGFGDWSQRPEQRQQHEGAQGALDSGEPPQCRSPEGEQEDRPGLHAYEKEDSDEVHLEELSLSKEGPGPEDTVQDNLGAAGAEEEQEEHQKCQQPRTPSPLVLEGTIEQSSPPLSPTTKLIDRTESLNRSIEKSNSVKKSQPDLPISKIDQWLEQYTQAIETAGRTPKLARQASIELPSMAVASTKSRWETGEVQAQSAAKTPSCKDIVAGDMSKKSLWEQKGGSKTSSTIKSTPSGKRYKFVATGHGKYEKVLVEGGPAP
# UniProt P30533, whole entry: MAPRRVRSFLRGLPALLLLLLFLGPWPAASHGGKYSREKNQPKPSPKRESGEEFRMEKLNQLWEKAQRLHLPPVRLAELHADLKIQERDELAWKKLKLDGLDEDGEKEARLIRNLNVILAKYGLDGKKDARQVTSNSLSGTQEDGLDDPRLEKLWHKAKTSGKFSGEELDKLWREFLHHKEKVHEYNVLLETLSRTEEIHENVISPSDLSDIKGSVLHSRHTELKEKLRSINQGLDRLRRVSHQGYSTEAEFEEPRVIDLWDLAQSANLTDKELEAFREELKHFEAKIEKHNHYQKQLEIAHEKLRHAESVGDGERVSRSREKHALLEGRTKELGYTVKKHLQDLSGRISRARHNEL
# UniProt P30047: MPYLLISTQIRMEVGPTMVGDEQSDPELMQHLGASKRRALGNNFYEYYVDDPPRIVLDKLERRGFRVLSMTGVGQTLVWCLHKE
# UniProt P30793: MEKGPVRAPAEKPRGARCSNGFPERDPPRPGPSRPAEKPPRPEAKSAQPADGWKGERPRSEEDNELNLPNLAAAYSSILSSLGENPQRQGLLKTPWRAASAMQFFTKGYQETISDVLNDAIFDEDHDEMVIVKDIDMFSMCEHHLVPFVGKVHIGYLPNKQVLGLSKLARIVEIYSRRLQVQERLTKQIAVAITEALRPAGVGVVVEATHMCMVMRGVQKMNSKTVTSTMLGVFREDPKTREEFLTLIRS
# UniProt P0DPI2: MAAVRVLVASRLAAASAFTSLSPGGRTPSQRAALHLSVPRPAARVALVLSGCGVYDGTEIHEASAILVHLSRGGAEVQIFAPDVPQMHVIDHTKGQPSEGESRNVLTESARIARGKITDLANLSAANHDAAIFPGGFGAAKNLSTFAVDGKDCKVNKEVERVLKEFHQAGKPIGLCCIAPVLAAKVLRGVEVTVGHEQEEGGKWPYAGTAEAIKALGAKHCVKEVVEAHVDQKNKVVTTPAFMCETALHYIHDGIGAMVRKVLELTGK
# UniProt P23610: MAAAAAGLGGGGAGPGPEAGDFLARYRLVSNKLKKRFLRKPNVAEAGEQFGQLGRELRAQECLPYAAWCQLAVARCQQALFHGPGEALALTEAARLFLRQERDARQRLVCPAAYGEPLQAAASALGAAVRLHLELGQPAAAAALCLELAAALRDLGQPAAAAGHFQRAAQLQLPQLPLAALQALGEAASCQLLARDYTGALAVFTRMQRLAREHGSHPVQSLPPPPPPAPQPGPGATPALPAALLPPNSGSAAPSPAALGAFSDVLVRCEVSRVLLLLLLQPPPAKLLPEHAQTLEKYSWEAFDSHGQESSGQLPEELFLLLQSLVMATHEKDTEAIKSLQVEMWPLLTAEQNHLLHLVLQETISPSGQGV
# UniProt P30154, whole entry: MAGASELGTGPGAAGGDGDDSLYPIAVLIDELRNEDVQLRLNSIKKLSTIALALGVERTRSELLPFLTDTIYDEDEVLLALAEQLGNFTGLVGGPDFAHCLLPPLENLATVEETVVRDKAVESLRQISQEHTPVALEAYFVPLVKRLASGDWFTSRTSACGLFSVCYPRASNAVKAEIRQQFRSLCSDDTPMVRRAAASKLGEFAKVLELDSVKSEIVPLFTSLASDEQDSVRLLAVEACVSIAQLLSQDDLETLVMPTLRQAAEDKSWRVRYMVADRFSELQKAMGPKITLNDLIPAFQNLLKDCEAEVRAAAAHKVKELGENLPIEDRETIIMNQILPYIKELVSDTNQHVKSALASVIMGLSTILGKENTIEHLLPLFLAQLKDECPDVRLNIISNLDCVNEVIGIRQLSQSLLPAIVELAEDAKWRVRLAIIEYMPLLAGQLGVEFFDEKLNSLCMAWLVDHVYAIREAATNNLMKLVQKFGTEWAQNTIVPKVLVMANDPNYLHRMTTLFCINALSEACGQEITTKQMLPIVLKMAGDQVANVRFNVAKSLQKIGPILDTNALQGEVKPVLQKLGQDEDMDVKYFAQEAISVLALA
# UniProt P19419: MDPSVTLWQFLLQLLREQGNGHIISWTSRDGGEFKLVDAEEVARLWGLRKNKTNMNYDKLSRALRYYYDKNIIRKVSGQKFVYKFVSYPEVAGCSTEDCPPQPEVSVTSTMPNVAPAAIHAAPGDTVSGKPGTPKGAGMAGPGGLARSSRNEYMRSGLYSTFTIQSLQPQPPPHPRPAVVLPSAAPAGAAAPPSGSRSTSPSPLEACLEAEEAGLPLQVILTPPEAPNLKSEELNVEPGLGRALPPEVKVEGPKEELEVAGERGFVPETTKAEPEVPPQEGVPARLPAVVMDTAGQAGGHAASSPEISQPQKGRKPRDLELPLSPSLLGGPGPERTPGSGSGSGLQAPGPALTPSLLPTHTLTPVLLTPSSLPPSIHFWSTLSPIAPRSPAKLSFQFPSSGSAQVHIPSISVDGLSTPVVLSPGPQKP
# UniProt P20618: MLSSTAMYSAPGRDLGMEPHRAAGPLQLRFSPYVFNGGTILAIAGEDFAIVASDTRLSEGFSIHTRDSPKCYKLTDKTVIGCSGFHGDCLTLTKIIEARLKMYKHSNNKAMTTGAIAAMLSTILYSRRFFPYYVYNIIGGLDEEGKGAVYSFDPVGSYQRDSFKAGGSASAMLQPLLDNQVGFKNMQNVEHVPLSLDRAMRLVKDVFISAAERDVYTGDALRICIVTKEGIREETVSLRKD
# UniProt P32780: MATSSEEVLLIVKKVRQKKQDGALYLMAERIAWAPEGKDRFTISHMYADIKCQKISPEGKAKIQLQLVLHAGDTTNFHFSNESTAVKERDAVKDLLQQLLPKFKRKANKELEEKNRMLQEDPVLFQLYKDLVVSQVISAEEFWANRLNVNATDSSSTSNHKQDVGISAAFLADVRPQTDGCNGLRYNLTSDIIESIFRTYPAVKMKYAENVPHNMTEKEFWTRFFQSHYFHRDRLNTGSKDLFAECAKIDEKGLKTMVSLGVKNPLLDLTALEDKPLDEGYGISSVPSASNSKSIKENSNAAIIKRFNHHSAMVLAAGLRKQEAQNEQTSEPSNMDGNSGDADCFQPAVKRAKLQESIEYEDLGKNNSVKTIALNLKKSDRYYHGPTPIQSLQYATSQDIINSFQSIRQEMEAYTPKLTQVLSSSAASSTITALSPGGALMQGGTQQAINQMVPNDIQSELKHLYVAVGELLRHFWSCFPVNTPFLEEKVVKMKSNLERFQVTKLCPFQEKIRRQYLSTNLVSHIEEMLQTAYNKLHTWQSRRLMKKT
# UniProt P17900: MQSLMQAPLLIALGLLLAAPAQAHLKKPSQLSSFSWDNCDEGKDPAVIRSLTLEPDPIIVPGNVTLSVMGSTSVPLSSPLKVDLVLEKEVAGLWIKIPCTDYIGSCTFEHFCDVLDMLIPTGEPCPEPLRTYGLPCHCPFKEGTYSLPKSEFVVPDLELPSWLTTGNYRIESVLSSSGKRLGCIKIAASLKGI
# UniProt P32119: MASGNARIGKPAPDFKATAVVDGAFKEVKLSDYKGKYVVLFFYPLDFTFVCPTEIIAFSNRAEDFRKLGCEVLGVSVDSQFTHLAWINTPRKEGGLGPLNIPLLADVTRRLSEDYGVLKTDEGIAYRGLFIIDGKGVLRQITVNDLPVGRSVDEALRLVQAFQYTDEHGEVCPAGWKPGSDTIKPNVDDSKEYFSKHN
# UniProt P18065: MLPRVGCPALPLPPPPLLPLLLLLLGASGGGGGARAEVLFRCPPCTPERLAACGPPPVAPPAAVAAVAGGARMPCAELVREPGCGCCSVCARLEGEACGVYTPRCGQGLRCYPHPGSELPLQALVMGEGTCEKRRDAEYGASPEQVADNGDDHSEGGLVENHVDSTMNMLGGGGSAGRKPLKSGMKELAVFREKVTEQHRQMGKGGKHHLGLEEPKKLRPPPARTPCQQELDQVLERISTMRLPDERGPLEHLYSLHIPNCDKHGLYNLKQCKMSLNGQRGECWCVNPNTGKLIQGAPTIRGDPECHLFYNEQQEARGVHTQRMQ
# ± gives the standard deviation of the averaged measurements. The list shows a part of the results, in another mix than the full data.
# Compound: Nc1ncnc2c1ncn2[C@@H]1O[C@H](COP(=O)(O)OP(=O)(O)OP(=O)(O)O)[C@@H](O)[C@H]1O [adenosine triphosphate]
# Experiment: NP40-soluble protein abundance relative to vehicle (solubility fold change) (ratio); higher = more soluble protein in presence of ATP
# In short: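 Jurkat crude lysate (Dounce-homogenised) was treated with eight concentrations from 0.1 to 10 mM for 10 min at room temperature, then 3 min at 37 °C. It was solubilised with 0.8% NP40 and benzonase (60 min, 4 °C) and ultracentrifuged, and the supernatant was TMT-labelled for LC-MS/MS. Intensities were vsn-normalised, and the value is the fold change against the NP40-processed vehicle per replicate, from three independent experiments.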
Target,NP40-soluble protein abundance (concentration: 1mM),NP40-soluble protein abundance (concentration: 2mM),NP40-soluble protein abundance (concentration: 4mM),NP40-soluble protein abundance (concentration: 6mM),NP40-soluble protein abundance (concentration: 8mM),NP40-soluble protein abundance (concentration: 10mM)
CPT2 (UniProt P23786),0.995 ± 0.071,0.992 ± 0.078,0.959 ± 0.066,0.94 ± 0.11,0.979 ± 0.048,0.962 ± 0.066
RAB3A (UniProt P20336),0.884 ± 0.051,0.909 ± 0.029,0.938 ± 0.053,0.913 ± 0.081,0.923 ± 0.059,0.906 ± 0.06
PSMB9 (UniProt P28065),0.963 ± 0.012,0.98 ± 0.032,0.956 ± 0.042,0.912 ± 0.036,0.92 ± 0.04,0.958 ± 0.014
VARS (UniProt P26640),1.02 ± 0.071,0.971 ± 0.05,0.966 ± 0.035,0.906 ± 0.024,0.992 ± 0.022,0.944 ± 0.041
UniProt P31327 and related entries,1.07 ± 0.044,1.08 ± 0.12,1.02 ± 0.077,0.98 ± 0.086,1 ± 0.14,1 ± 0.061
UniProt P29350 and related entries,1.02 ± 0.057,0.994 ± 0.057,0.98 ± 0.062,0.984 ± 0.081,0.99 ± 0.073,0.974 ± 0.052
TUBG1 (UniProt P23258),1.14 ± 0.086,1.1 ± 0.054,1.09 ± 0.083,1.1 ± 0.13,1.2 ± 0.099,1.16 ± 0.14
GTF2E1 (UniProt P29083),0.9955 ± 0.0051,1.025 ± 0.0042,1.01 ± 0.015,0.965 ± 0.061,0.981 ± 0.03,1.03 ± 0.011
UniProt P33241 and related entries,0.944 ± 0.14,1.02 ± 0.1,1.05 ± 0.11,1.1 ± 0.13,1.07 ± 0.056,1.08 ± 0.069
TMEM11 (UniProt P17152),0.979 ± 0.13,0.931 ± 0.13,0.915 ± 0.093,0.834 ± 0.11,0.95 ± 0.065,0.911 ± 0.11
LRPAP1 (UniProt P30533),0.99 ± 0.098,0.954 ± 0.01,1.02 ± 0.0071,1.11 ± 0.029,1.03 ± 0.039,0.994 ± 0.11
GCHFR (UniProt P30047),1 ± 0.29,0.957 ± 0.27,1.053 ± 0.0042,1 ± 0.0069,0.983 ± 0.32,0.875 ± 0.15
UniProt P26358 and related entries,0.989 ± 0.026,0.988 ± 0.014,0.978 ± 0.021,0.999 ± 0.029,0.992 ± 0.019,0.974 ± 0.017
GCH1 (UniProt P30793),0.947 ± 0.019,0.98786 ± 0.00041,1.02 ± 0.027,0.879 ± 0.028,0.926 ± 0.093,0.937 ± 0.019
P30042 (UniProt P0DPI2),0.9847 ± 0.0097,0.948 ± 0.041,0.936 ± 0.007,0.982 ± 0.053,0.942 ± 0.061,0.938 ± 0.016
UniProt P23610,0.924 ± 0.015,0.937 ± 0.015,0.977 ± 0.078,0.938 ± 0.054,0.96 ± 0.066,0.885 ± 0.031
HIBADH (UniProt P31937),0.952 ± 0.019,0.964 ± 0.03,0.948 ± 0.07,0.965 ± 0.033,0.936 ± 0.064,0.942 ± 0.016
UniProt P23396 and related entries,0.853 ± 0.038,0.795 ± 0.085,0.756 ± 0.081,0.694 ± 0.062,0.65 ± 0.083,0.742 ± 0.081
UniProt P29353 and related entries,1 ± 0.021,1.03 ± 0.064,0.998 ± 0.029,0.966 ± 0.015,1 ± 0.063,1.04 ± 0.051
UniProt P30154 and related entries,0.941 ± 0.017,0.956 ± 0.026,0.937 ± 0.018,0.935 ± 0.016,0.913 ± 0.016,0.903 ± 0.056
ARF4 (UniProt P18085),1.08 ± 0.29,1.04 ± 0.18,0.964 ± 0.11,0.889 ± 0.2,1.02 ± 0.15,1.01 ± 0.063
ERP29 (UniProt P30040),0.947 ± 0.035,0.945 ± 0.011,0.914 ± 0.016,0.9321 ± 0.0062,0.906 ± 0.011,0.893 ± 0.024
ELK1 (UniProt P19419),0.945 ± 0.075,0.953 ± 0.1,0.949 ± 0.12,1 ± 0.15,0.953 ± 0.08,0.959 ± 0.085
PSMB1 (UniProt P20618),0.833 ± 0.27,0.959 ± 0.12,0.875 ± 0.075,0.813 ± 0.17,0.908 ± 0.064,0.839 ± 0.12
UniProt P32780 and related entries,1.004 ± 0.0076,1.03 ± 0.049,1.04 ± 0.029,1.08 ± 0.019,1.07 ± 0.042,1.12 ± 0.035
GM2A (UniProt P17900),0.972 ± 0.084,0.982 ± 0.053,0.961 ± 0.053,0.965 ± 0.03,0.971 ± 0.045,0.892 ± 0.093
HOXB4 (UniProt P17483),1.03 ± 0.068,0.979 ± 0.037,0.96 ± 0.044,0.934 ± 0.043,1.02 ± 0.16,0.897 ± 0.019
PRDX2 (UniProt P32119),0.966 ± 0.053,0.933 ± 0.059,0.91 ± 0.029,0.944 ± 0.082,0.928 ± 0.066,0.896 ± 0.078
IGFBP2 (UniProt P18065),0.969 ± 0.026,1.02 ± 0.054,1.019 ± 0.0041,1.01 ± 0.024,0.995 ± 0.029,0.988 ± 0.033
EIF2S2 (UniProt P20042),0.963 ± 0.05,1.02 ± 0.027,0.981 ± 0.029,1.06 ± 0.02,0.99 ± 0.013,1.018 ± 0.0065
